# Primary screen of a compound library

Sequences of proteins named here, by UniProt entry; tags and fusion partners are left off. Residues count along the entry.
UniProt P9WPC5, whole entry: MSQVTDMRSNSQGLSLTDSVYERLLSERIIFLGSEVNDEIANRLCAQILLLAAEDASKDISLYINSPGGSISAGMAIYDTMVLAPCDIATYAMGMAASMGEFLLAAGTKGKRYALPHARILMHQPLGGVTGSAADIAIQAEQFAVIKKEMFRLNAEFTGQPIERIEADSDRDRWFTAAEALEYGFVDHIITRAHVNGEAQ
UniProt P9WPC3, whole entry partner: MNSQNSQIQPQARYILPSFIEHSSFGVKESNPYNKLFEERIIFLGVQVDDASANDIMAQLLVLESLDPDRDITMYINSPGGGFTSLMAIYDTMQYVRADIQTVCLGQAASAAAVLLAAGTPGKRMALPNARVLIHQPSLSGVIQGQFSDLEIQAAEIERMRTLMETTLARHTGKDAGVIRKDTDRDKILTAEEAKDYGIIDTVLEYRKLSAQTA
UniProt Q8IDJ8, 1-583: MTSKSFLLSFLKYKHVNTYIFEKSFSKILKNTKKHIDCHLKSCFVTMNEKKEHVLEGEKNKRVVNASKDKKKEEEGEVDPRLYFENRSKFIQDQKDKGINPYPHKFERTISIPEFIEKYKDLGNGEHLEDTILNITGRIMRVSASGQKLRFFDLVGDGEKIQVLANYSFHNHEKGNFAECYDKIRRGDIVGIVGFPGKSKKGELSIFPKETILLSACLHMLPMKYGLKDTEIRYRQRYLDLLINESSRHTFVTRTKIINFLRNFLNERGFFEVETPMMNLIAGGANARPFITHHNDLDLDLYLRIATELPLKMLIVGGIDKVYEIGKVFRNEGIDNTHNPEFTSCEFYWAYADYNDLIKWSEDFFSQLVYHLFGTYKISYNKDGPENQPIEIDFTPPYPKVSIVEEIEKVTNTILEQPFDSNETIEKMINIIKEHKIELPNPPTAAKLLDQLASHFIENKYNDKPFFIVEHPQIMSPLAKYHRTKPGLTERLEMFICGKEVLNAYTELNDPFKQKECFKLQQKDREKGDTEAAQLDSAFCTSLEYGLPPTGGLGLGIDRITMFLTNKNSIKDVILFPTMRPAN

Leishmania in macrophages: 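Cell assay of Leishmania donovani living inside macrophages; the read-out is not stated. Compounds at 30 µM. The record gives no direction; compounds that gave an IC50 in retests scored well above the rest, so higher reads as stronger inhibition. About 69,000 compounds were tested under these conditions; 1.5% (about 1,000) showed 50% or more at least once.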
ClpP1P2: 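ClpP1P2, Mycobacterium tuberculosis (UniProt P9WPC5 and UniProt P9WPC3). Protease assay of ClpP1P2, read by the AMC dye that it sets free. Tested at 50 µM. Direction is inferred from only a few compounds that gave an IC50; most scored high, so higher reads as stronger inhibition. Most other retested compounds had strongly negative values. Of about 69,000 compounds tested this way, about 10 (0.015%) reached 50% or more in at least one test.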
Toxoplasma: 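Assay of Toxoplasma gondii numbers, read through their beta-galactosidase reporter with a colour substrate. Concentration: 10 µM. Higher reads as fewer parasites (inferred from which compounds were picked for retests). Size under these conditions: about 67,000 compounds, about 260 of them at 50% or above in at least one test.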
PfKRS1: 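Lysine-tRNA ligase, Plasmodium falciparum 3D7 (UniProt Q8IDJ8). Enzyme assay of the cytosolic lysyl-tRNA synthetase in 384-well plates, read by luminescence. Concentration: 30 µM. Direction is inferred from only a few compounds that gave an IC50; most scored high, so higher reads as stronger inhibition. Of about 69,000 compounds tested this way, about 49 (0.071%) reached 50% or more in at least one test.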

Values are the deposited “Percent Effect”, in %. The record does not define 0% and 100%; most values in the screen are far below 50% and negative numbers occur (in some assays of this library far below -100). This is an unselected part of the compounds tested. Two or more numbers in one place are separate tests of the same structure; such repeats can differ widely. A dash means the value is not listed here; it may have been measured.

compound | Leishmania in macrophages | ClpP1P2 | Toxoplasma | PfKRS1
NCC(=O)N1CCCC(c2cncc(Nc3ncccn3)n2)C1 (stereo unspecified) | - | 3.486% | - | 9.255%
N#CC1(NC(=O)c2nccc3ccccc23)CCC2(CC1)OCCO2 | 2.798% | 4.185% | 6.998% | 3.981%
O=C(Nc1ccc(N2CCCCC2)cn1)C1CCCN1C(=O)C1CC1 (stereo unspecified) | 7.135% | 7.018% | 2.116% | 1.114%
CCc1nsc(N2CCN(C(=O)c3ccnc(N(C)C)c3)CC2)n1 | 21.27% | -1.42% | 0.911% | 2.169%
OCC1CCN(C[C@@H]2CN(C3Cc4ccccc4C3)C[C@@H]2CO)CC1 | 9.821% | -12.1% | 5.9% | 1.765%
CCCN1CCN(Cc2cccc(OCC(N)=O)c2)[C@H]2CS(=O)(=O)C[C@H]21 | - | -17.7% | - | 3.128%
CC1=CC[C@@H]2CN(C(=O)c3ccc(-c4nc[nH]n4)cc3)C[C@@H]2C1 | - | -12.91% | - | -4.42%
CC(C)N1CCc2[nH]nc(C(=O)N3CCOCC3)c2C1.O=C(O)C(F)(F)F.O=C(O)C(F)(F)F | 2.725% | - | -73.95% | -
CCN(CC1CCOC1)C(=O)c1ccc(-c2ccsc2)nc1C (stereo unspecified) | 17.22% | -37.37% | -29.47% | 2.485%
Cc1noc(CCNC(=O)NCC(=O)NCc2ccccc2)n1 | 9.952% | -1.387% | -13.73% | 5.381%
Cc1cnn(C2CN(CC(O)COc3ccc(C#N)cc3)C2)c1 (stereo unspecified) | 2.287% | -6.704% | -11.71% | 4.227%
c1csc(CN2Cc3nccn3CC(Cn3cncn3)C2)n1 (stereo unspecified) | - | -7.499% | - | -3.099%
CN(CC(=O)Nc1nc2c(s1)CCC2)C(=O)c1cccs1 | 47.42% | -2.732% | -13.17% | 4.326%
O=C(CCCn1cccn1)N1CCCC(n2cncn2)C1 (stereo unspecified) | 14.94% | -7.749% | -0.06423% | -1.093%
CC(C)(C)c1cnc(CN(Cc2cccnc2)CC2CCCO2)o1 (stereo unspecified) | -78.77% | -15.25% | -30.69% | 2.436%
O=C(NCCCn1cccn1)C1COCC(=O)N1Cc1ccccc1 (stereo unspecified) | -3.339% | 3.73% | -8.292% | 1.935%
CCOC1CC2(CCN(c3cnccn3)CC2)c2ccccc21 (stereo unspecified) | 27.79% | 8.848% | 1.649% | 3.541%
CN(Cc1ccc(Cl)c(Cl)c1)C(=O)CNC(N)=O | 6.941% | 8.004% | 1.458% | 9.321%
Cc1nn(C)c(Cl)c1CNCc1cccnc1N1CCN(C)CC1 | - | -11.36% | - | 10.18%
Cc1noc(C)c1CC(=O)NCCN1CCN(S(C)(=O)=O)CC1 | 7.097% | -5.171% | 7.159% | 5.599%
O=C(c1ccoc1)N1CC[C@@H]2O[C@@H](COCc3ccncc3)CC[C@@H]21 | - | 9.179% | - | 7.588%
Nc1ncc(-c2ccc(C(F)(F)F)cc2)c(C2CCCNC2)n1 (stereo unspecified) | 27.67% | -15.4% | 5.094% | -0.1959%
CC(=O)c1c(C)nn(CC(=O)N2Cc3cnc(CC(C)C)nc3C2)c1C | -3.051% | -8.184% | -5.369% | 2.209%
CN(Cc1ccsc1)C(=O)c1ccc(C2CCCO2)s1 (stereo unspecified) | -54.61% | 1.637% | -5.023% | 4.299%
COCCSc1ccc(C(C)NC(=O)Nc2cn[nH]c2)cc1 (stereo unspecified) | 20.22% | 4.779% | -3.22% | 7.07%
COc1ccc2nnc(CCCC(=O)Nc3nc4c(s3)CCC4)n2n1 | 23.7% | -0.6506% | 3.044% | -1.007%
CCCN(CC(F)(F)F)S(=O)(=O)c1cc(C(N)=O)n(C)c1 | 28.65% | 2.086% | -14.54% | 3.576%
Cc1ncsc1CN1C[C@H](C(=O)N2CCCO2)[C@@H]2CCO[C@@H]2C1 | - | 2.347% | - | 0.2172%
CC(=O)Nc1ccc(S(=O)(=O)Nc2c(F)cccc2F)cc1 | -1.932% | -5.36% | 4.121% | -1.699%
Cc1cnc(-c2nc(C3CCN(C(=O)Cc4ccsc4)CC3)no2)cn1 | 9.496% & 26.89% | -1.173% | 3.126% | -0.3149%
N#Cc1ccc(CN2CCN(C(=O)CCn3cncn3)CC2)cc1 | 15.54% | -4.096% | -3.344% | -0.2788%
Cc1nc(C2CCCN(C(=O)c3ccc(OCC4CC4)nc3)C2)no1 (stereo unspecified) | 1.819% | -27.87% | -10.98% | 0.7631%
NC(=O)N1CCCC(C(=O)NCCOc2ccc(F)cc2F)C1 (stereo unspecified) | -0.9985% | -6.072% | -1.129% | 0.6445%
CN1CC(=O)N(c2ccsc2)CC12CCN(C(=O)c1cccn1C)C2 (stereo unspecified) | - | -6.708% | - | 3.553%
CCOc1ncccc1NC(=O)NCC(O)c1ccc(OC)cc1 (stereo unspecified) | -13.84% | -13.08% | 0.03786% | 0.06577%
O=c1c(CN2CCSCC2)coc(O)c1CN1CCCC1 | 5.815% | 13.31% | - | 2.627%
CCCNC(=O)C1CCCN(Cc2csc(C(C)(C)C)n2)C1 (stereo unspecified) | 24.79% | -12.37% | -27.83% | -1.697%
[H][C@@]12COC[C@]1(COc1nccc(C)n1)CN(C(=O)C1=CCCCC1)C2 | -0.1349% | - | -8.689% | -
O=C(COC1CCCCC1)N1CCCC(n2ccnc2)C1 (stereo unspecified) | 32.06% | -10.6% | 2.771% | -0.7101%
COc1cccc(OCC(=O)N2CCCSCC2CN2CCOCC2)c1 (stereo unspecified) | -3.527% & 7.223% | 0.7309% | 6.178% | -2.388%
CC(C)(C)NC(=O)N1CCN2C(=O)OCC2C1 (stereo unspecified) | 13.73% | -11.36% | 0.5057% | 2.758%
COc1ccc(F)c(NCc2ccc(C(=O)N(C)C)[nH]2)c1 | -9.22% | -0.4752% | 4.205% | 3.575%
Cc1cnc(N2CCC(c3ccncc3)CC2)nc1-c1ccnn1C | 49.51% | -22.28% | 23.15% | -3.736%
Cc1n[nH]c(C(=O)N2CCCC(C)CC2)c1Br (stereo unspecified) | 2.179% | -3.067% | -15.26% | 1.723%
Cc1cc2ncn(C(=O)N3CCOCC3)c2cc1C | 8.931% | -11.32% | 4.507% | 0.6008%
CN(C)C(=O)c1ccc(-c2cscn2)cc1 | -71.37% | -0.1068% | -1.722% | -7.132%
CS(=O)(=O)N1CCc2[nH]cnc2C12CCN(C(=O)c1cccnc1)CC2 | 23.79% | -13.6% | 4.515% | 0.3951%
O=C(O)C(F)(F)F.[H][C@@]12CCN(S(=O)(=O)C3CC3)[C@@]1([H])CCN2Cc1ccc(C)cc1 | 6.121% | - | -0.8966% | -
N#Cc1cccnc1NCc1cccnc1N1CCC(C(N)=O)CC1 | 22.99% | -2.043% | 6.752% | 1.745%
COc1ccc(CCC(C)Nc2cccc(SC)c2)cc1 (stereo unspecified) | -26.33% | -4.968% | -1.188% | -4.46%
CCN1CCCC(CNC(=O)C2(c3cc(C)cc(C)c3)CCC2)C1 (stereo unspecified) | 18.08% | -30.84% | 0.6102% | -1.763%
Cc1ccc(-c2ncc(CN3CCN(S(N)(=O)=O)CC3)s2)o1 | -1.131% | -2.431% | -9.201% | 3.744%
CC(C)(C)CC(NC(=O)N1CCC(C(N)=O)CC1)C(F)(F)F (stereo unspecified) | 22.91% | -3.027% | -1.309% | 3.643%
Cc1nc(CN2CCCN(C(=O)c3cccn3C)CC2)cs1 | 26.55% | -17.32% | -6.626% | 3.83%
CNC(=O)C1CCCN(C(=O)C2CCC2)C1 (stereo unspecified) | 1.341% | -1.232% | -2.879% | -1.955%
COCCc1noc(Cn2c(=O)[nH]c3ccccc32)n1 | -26.03% | -5.933% | - | 1.993%
Cc1cccc(C(C)C)c1NC(=O)CN(C)C(C)c1nccs1 (stereo unspecified) | 23.72% | 3.245% | -11.1% | 4.316%
CN(C)c1nccc(NCc2cc(-c3cccs3)n[nH]2)n1 | -7.101% & 23.88% | -6.863% | 14.27% | 0.2877%

For reference, 3 entries once more:

{"compound": "CC(C)(C)c1cnc(CN(Cc2cccnc2)CC2CCCO2)o1", "stereo": "stereo unspecified", "Leishmania in macrophages": -78.77, "ClpP1P2": -15.25, "Toxoplasma": -30.69, "PfKRS1": 2.436}
{"compound": "Cc1cnc(N2CCC(c3ccncc3)CC2)nc1-c1ccnn1C", "Leishmania in macrophages": 49.51, "ClpP1P2": -22.28, "Toxoplasma": 23.15, "PfKRS1": -3.736}
{"compound": "Cc1nc(C2CCCN(C(=O)c3ccc(OCC4CC4)nc3)C2)no1", "stereo": "stereo unspecified", "Leishmania in macrophages": 1.819, "ClpP1P2": -27.87, "Toxoplasma": -10.98, "PfKRS1": 0.7631}

Measurements from “University of Dundee, Small-Polar-MMV Screening Library” (2021), ChEMBL document CHEMBL3988442.